Experimental data as given in the supplement of paper PMC3334620.
In all, about 33,000 sequences were measured (“E-score (-0.5 to 0.5)”: median about -0.0034, highest 2% from about 0.25 on). This is one part of the list.

What follows are sequences tested against T1, Yap3 (UniProt P38749) (assay: PBM E-score (8-mer binding enrichment) (E-score (-0.5 to 0.5)); higher = stronger / more preferred TF binding). Details: protein concentration: 100 nM; construct: GST-full length.
T1 sequence: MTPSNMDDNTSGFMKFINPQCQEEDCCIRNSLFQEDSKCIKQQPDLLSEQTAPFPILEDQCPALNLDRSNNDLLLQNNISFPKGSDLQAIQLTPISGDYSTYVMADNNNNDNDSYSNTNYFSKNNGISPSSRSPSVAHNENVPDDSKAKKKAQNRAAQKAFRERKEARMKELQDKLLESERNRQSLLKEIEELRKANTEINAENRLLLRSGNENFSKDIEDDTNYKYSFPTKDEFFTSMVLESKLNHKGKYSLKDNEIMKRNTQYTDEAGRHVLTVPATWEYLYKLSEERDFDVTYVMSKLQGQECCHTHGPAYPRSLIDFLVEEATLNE
Method in brief: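 Full-length yeast transcription factors or their DNA-binding domains, GST-tagged and expressed with PURExpress, were applied at about 100-200 nM to universal all-10-mer Agilent arrays. These arrays had been made double-stranded by primer extension on fresh or once-stripped slides. Detection used fluorescent anti-GST, normalisation used masliner, and E-scores for ungapped eight-base words pooled with reverse complements came from the Universal PBM Analysis Suite.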

Sequence | PBM E-score
ACTATGCC | -0.0279
ATTACTCA | 0.299
CCAAATGC | 0.0716
AGTACTAT | 0.0279
CAGTCAAA | -0.0396
ACAGGCAC | -0.0534
ATAGAGAA | 0.197
CCCGATGA | 0.0319
TATGGCGA | -0.0502
AGATAAGA | 0.24
CTTACAGA | -0.195
AGCGCAGC | -0.217
CAATGCAG | -0.0332
CGTGACTA | 0.0867
AATACCGA | 0.0401
ACTCTGAA | 0.00928
CTAATCGA | 0.125
AATACATT | 0.206
CGAGACGC | 0.0668
AGGAGCAT | 0.0355
AGTTAACC | 0.0307
TCTTAACA | 0.164
AAACGCTT | 0.0404
CACTTGAA | 0.239
CGCATAGA | 0.125

Random excerpt: 3 records from the list, in no set order.
Sequence | PBM E-score
AGTTAACC | 0.0307
ACTCTGAA | 0.00928
AATACCGA | 0.0401

Remaining list, next part.

Sequence | PBM E-score
GAATCACA | 0.0551
AGCTTGAC | -0.0896
CCCCCTTA | -0.173
AATCTACA | 0.0627
AGTGACAC | -0.0141
CCCTACTC | 0.0112
CTTACATA | 0.248
CAATCGTC | 0.138
CCGTCACA | -0.164
TACTTTCA | 0.177
ACGAAGGG | -0.188
GGCGTTAC | -0.244
ACCTTAGG | -0.123
ACGTAGGC | -0.182
AGATACCG | 0.0481
CTTGGCTC | -0.192
AGCGGAGG | -0.283
AACCTATC | 0.0574
AAAGCTCT | -0.168
GTGTTGAA | -0.00697
AAGGTCCA | -0.105
GACCGATC | -0.0901
ATTGAATG | 0.204
CAAGTACG | -0.181
AGTCCTCA | 0.0148

In another format: results already given
Sequence	PBM E-score
ACCTTAGG	-0.123
AGCGGAGG	-0.283

Copied from the list.
PBM E-score with TACTTTCA reads 0.177
PBM E-score with ATTGAATG reads 0.204

(list continues)

Sequence | PBM E-score
ATCCTGCA | 0.113
CGCAGACG | -0.0471
AGAAGCCC | -0.167
GGGCCCCA | -0.3
CATAGGTC | 0.0459
CAGACGAG | -0.126
CGCTTAAC | 0.0483
GGGCCACA | -0.133
CCGTCGTC | -0.129
ATTCGCGC | 0.0553
CCGTATCG | -0.178
CCGCGCAG | -0.111
GGTCTGAA | -0.0382
AGCCGATA | 0.0291
ACAGACGG | -0.11
AAATGGCC | -0.0507
GCTGTGGA | -0.0368
ATGAGGCC | -0.143
ACTTACGG | 0.0411
CTTGACTC | -0.161
AGGAGGCA | -0.12
CGGATGTA | 0.109
AGGCTTCC | -0.0483
CCCGTGAA | 0.0163
TTGGTAAA | 0.113

Sequence | PBM E-score
GAATCGCC | -0.277
GTAGAAAA | 0.185
TGATCTAA | -0.00748
GTATCACA | 0.183
TTACAGAA | 0.0743
GGAATCGA | -0.059
AACATCAC | 0.121
ATACACAC | -0.00358
GAACAAAC | 0.227
AGTCGTGG | -0.0812
ACGGCGGA | -0.161
AGCACGTC | 0.112
AGTACCAA | 0.281
CCGGGCCC | -0.0537
TGCGTTAA | -0.0586
CAAAGGGA | -0.075
CCATAGAA | 0.0478
CAAATTCC | 0.148
CACGGTTA | 0.122
CAGATGTA | -0.00722
AACATTAT | 0.177
AAGCACAG | 0.0743
GGTCTTCA | -0.182
CAAGCCGA | 0.0414
AAATGTAT | 0.222

Sequence | PBM E-score
ACTCCGGG | 0.0119
CCCTTCGC | -0.244
TCTAGCCA | -0.0743
AACAGTCG | -0.0471
AAAGCAAC | 0.139
GGGGATAA | 0.0811
CACTTCCA | -0.0654
AGCGCCTC | -0.176
AGTCCACA | -0.0934
ACAGTATG | 0.118
CGGGTTCA | -0.221
CATATAAC | 0.213
ACCCCACT | 0.0383
AACAACCG | 0.156
AAATATAT | 0.285
CAGGACAC | -0.203
TATAATCA | 0.265
ATCAACGA | 0.0138
TGCTGACA | 0.105
CGCAAAAA | 0.145
CAAGAATC | 0.112
CGCTACTA | 0.264
GCCAAGTA | -0.0708
GCAGCCGA | -0.178
GAGTGCCA | -0.203

Sequence | PBM E-score
ATAGAGAT | 0.166
ATCATATC | 0.193
GACAATGA | -0.172
AACACCCA | -0.0606
ACATTGCG | -0.0125
ATTCGTGA | 0.161
GCGCTGTA | -0.0584
GCACGAAA | 0.148
CTGATGGA | -0.145
AGAGAGAA | -0.136
AAAAGGCC | -0.103
AATCTCTG | -0.138
CAATAAAA | 0.201
CCGGCTGC | -0.18
ATAGTCTC | 0.164
AAAACAGT | 0.153
ACAGCCCG | -0.111
ACTCAGAC | 0.141
AGTACGGA | 0.0777
AAAGCTTT | 0.109
AGTCTGAA | 0.0436
ACGCCTTG | -0.0431
CCGTTATA | 0.0218
ACACAGAG | -0.0836
ACTGAGCC | -0.21

Sequence | PBM E-score
AGGACAAT | 0.166
ATGCATTA | 0.333
GATAGCAA | 0.248
AGAGGAAA | 0.0254
CTGTAGAA | 0.043
AACTCCGA | -0.0161
ACTAACAG | 0.315
AGTGTTAA | 0.125
CCAATTAA | 0.0782
AAAAACGG | 0.165
GAGTCAGA | -0.00915
ACAATCCG | 0.116
GGTAAAAC | 0.0466
CAGGGTCA | -0.234
CACGTATC | 0.0819
CTGAGCGA | -0.151
AGGGCGCA | -0.162
GAGGCCTA | -0.0891
ATGGAGGA | -0.0588
GAAGGAGA | 0.123
ATAACTGG | -0.0217
AAATCCAA | 0.0898
